# Laboratory results: PubChem BioAssay AID2549 (National Center for Advancing Translational Sciences (NCATS), 2010)
# Sequences of proteins named here, by UniProt entry; tags and fusion partners are left off. A change or cut given only in a name is not applied to a line headed by its entry.
# UniProt P46063: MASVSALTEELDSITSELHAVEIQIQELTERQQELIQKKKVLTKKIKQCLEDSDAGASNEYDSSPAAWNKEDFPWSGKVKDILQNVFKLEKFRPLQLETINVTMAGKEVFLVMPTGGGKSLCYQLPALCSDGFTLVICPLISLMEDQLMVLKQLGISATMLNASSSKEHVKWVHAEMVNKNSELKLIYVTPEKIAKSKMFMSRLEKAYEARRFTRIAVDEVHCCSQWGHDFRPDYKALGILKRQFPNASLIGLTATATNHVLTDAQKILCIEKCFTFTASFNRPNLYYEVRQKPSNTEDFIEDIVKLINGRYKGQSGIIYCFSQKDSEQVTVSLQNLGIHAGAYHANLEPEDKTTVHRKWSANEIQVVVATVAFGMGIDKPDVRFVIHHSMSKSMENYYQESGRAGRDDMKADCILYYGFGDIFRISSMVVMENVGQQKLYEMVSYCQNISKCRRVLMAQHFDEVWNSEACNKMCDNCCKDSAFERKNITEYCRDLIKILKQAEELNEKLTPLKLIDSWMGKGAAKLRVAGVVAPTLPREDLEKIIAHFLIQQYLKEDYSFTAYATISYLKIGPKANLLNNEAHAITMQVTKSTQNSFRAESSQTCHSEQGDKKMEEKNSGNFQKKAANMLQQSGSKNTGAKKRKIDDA
# The campaign covered roughly 240,000 compounds. About 1,300 (0.54%) were called active. The inconclusive results got no clear call from the source; some entries with a clear call stand among them for comparison. Calls follow the shape of the dose curve; as a rule, active = well fitted inhibition curve with a large enough effect; inconclusive = small, poorly fitted or top-dose-only effect; inactive = flat fitted curve, though single readings scatter. Potencies of inconclusive entries are doubtful fits and often do not repeat. A structure can be active in one record and inactive in another. *1 amine or outer side, *2 acyl side, *3 side chain or, on linkers, in order; H or OH if unused. Where a SMILES comes first, the peptide text is derived from it. Bridges are numbered along the chain shown (N, C = ends). [ ]: non-standard residue; d: D form. ξ: configuration not given here. hSer(Ph(2-I,4-NO2,6-CO)) = O=C([C@H](CCOc1c(I)cc([N+](=O)[O-])cc1C(=O)[*:3])N[*:1])[*:2]; ξD = NC(CC(=O)O)C(=O)O
# Target: ATP-dependent DNA helicase Q1 (Homo sapiens) (UniProt P46063)
# Experiment: qHTS Assay for Inhibitors of RecQ-Like Dna Helicase 1 (RECQ1); also: nearly all actives have a fitted effect of over 30% in size;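 as to activity, negative = inhibition: plate controls were vehicle for no effect and no enzyme for full effect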
# Conditions: RECQ1 DNA unwinding, red fluorescence kinetic read; activity, negative = inhibition: at 57.3 µM (top of the series); series mostly up to 57.3 µM
# Procedure, shortened: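 RECQ1T1 50 nM; forked duplex (20 bp + 30-nt ss tails) 200 nM, ATP 2 mM final; pH 8.0, 2 mM MgCl2, 2.5 ug/ml poly(dI-dC); 15 min compound preincubation; discontinuous kinetic read over 2 h at RT.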
# Potency is read from the fitted curve at half-maximal effect.
SMILES,Potency,"activity, negative = inhibition"
CC1(OC(=O)CCc2ccccc2)C(=O)C=C2C=C3CCCN3C=C2C1=O (stereo not drawn),"inconclusive: 2.51 µM [inhibitor, partial curve, poor fit]",–
O=c1cnc2cnc(Oc3ccccc3)nc2n1Cc1cccs1,inactive,–
CC(=O)Nc1nc(CC(C)C)cc(-c2ccccc2)c1C#N,inactive,–
Cc1ccc(NC(=O)CN2C(=O)N/C(=C/c3ccco3)C2=O)cc1,active: 3.98 µM,–
COc1cccc(C(=O)Nc2cccc(C(=O)NC3=NN(c4c(Cl)cc(Cl)cc4Cl)C(=O)C3)c2)c1,active: 31.6 µM,–
Cc1ccc(-c2csc3nc(CSc4nnc(-c5ccc(Cl)cc5)n4C)[nH]c(=O)c23)cc1,"inconclusive: 0.708 µM [inhibitor, full curve]",–
Cn1cc(C(=O)Nc2cccc(F)c2)cn1,inactive,–
CC(=O)Nc1ccc(OS(=O)(=O)c2ccc(C(C)(C)C)cc2)cc1,"inconclusive: 35.5 µM [inhibitor, partial curve]",–
COc1ccc(-c2nn(C)c3sc(C(=O)NCc4ccco4)cc23)cc1OC,inactive,–
O=C(NCCN1CCc2ccccc2C1)C1CCN(S(=O)(=O)N2CCC3(CC2)OCCO3)CC1,"inconclusive: 22.4 µM [inhibitor, partial curve]",–
"C[C@@H]1NC(=O)c2cc([N+](=O)[O-])cc(I)c2OCC[C@@H](C(=O)NC(CC(=O)O)C(N)=O)NC(=O)[C@H](CCC(=O)O)NC1=O (stereo partly drawn) (AE[hSer(Ph(2-I,4-NO2,6-CO))][ξD]-NH2; lactam N-3)","inconclusive: 0.891 µM [inhibitor, full curve]",–
Cc1nc2ncnn2c(C)c1CCC(=O)N1CC(C)CC(C)C1 (stereo not drawn),"inconclusive: 0.708 µM [inhibitor, single point]",–
O=C(COc1ccccc1Cl)c1ccc[nH]1,"inconclusive: 25.1 µM [inhibitor, single point]",–
Cc1cc2nc(C)c(Cl)c(=O)n2[nH]1,"inconclusive: 25.1 µM [inhibitor, partial curve, poor fit]",–
Nc1c(S(=O)(=O)c2cccc(Cl)c2)c2nc3ccccc3nc2n1/N=C/c1ccc(O)c(O)c1,"inconclusive: 39.8 µM [inhibitor, single point]",–
O=C(Nc1cccn(Cc2c(Cl)cccc2Cl)c1=O)c1ccc(Cl)cc1,–,inconclusive: -31.9% [inhibitor]
Cc1cccc2cc3c(N)c(C#N)sc3nc12,inactive,–
COc1cccc(NC(=O)N(CCCN2CCOCC2)C(C)c2cc3ccccc3o2)c1 (stereo not drawn),"inconclusive: 1.12 µM [inhibitor, full curve]",–
C#CCOCCOCCOCCNc1nc(N2CCN(C(=O)C(Cc3cc4ccccc4[nH]3)n3cc(C(N)Cc4ccc(O)cc4)nn3)CC2)nc(N2CCN(C(=O)C(Cc3cc4ccccc4[nH]3)n3cc(C(N)Cc4ccc(O)cc4)nn3)CC2)n1 (stereo not drawn),"inconclusive: 31.6 µM [inhibitor, single point]",–
COc1cccc(OCc2nnc(SCC(=O)NCc3ccco3)n2C)c1,"inconclusive: 0.126 µM [inhibitor, full curve, poor fit]",–
Clc1ccc(N2N=C(c3cccs3)CC2c2ccco2)cc1 (stereo not drawn),inactive,–
C[N+]1(CC(O)COCC2COc3ccccc3O2)CCOCC1 (stereo not drawn),inactive,–
Cc1cc(=O)c(C(=O)O)cn1-c1ccc(C(C)C)cc1,"inconclusive: 0.891 µM [inhibitor, single point]",–

SMILES,Potency,"activity, negative = inhibition"
Cc1ccc(N2CCN(C(=O)c3ccccc3NC(=O)C3CCCCC3C(=O)O)CC2)cc1 (stereo not drawn),"inconclusive: 35.5 µM [inhibitor, partial curve]",–
O=C(/C=C/c1ccco1)OCc1nnc(-c2ccc(Cl)cc2)o1,"inconclusive: 31.6 µM [inhibitor, single point]",–
O=C1CN(C(=O)/C=C/c2ccco2)c2ccccc2N1,inactive,–
COc1ccccc1-c1nnn(C/C(N)=N/O)n1,"inconclusive: 1.12 µM [inhibitor, full curve]",–
CCOC(=O)c1cc(CC)sc1/N=C/C1=C(O)CC(C)(C)CC1=O,"inconclusive: 8.91 µM [inhibitor, partial curve]",–
c1ccc2c(Nc3ccc4c(c3)OCCO4)c3c(nc2c1)CCC3,"inconclusive: 35.5 µM [inhibitor, single point]",–
O=[N+]([O-])c1ccc(C=Nc2ccc(Cl)cc2Cl)s1,active: 25.1 µM,–
CC(=O)n1cc([C@@H]2C=C(C(=O)NCc3ccccc3)O[C@H](OCc3ccc(CO)cc3)C2)c2ccccc21,inactive,–
O=C(/C=C/c1ccccc1F)c1ccoc1,active: 0.141 µM,–
O=C1[C@@H]2[C@H](C(=O)N1n1cnnc1)[C@H]1C=C[C@@H]2C1,"inconclusive: 2.51 µM [inhibitor, partial curve]",–
N#C/C(=C\c1ccc(-c2ccc(C(=O)O)cc2)o1)c1nc2ccccc2[nH]1,"inconclusive: 14.1 µM [inhibitor, single point]",–
CCOC(=O)C1=C(N)n2c(s/c(=C\c3ccco3)c2=O)=C(C(=O)OC(C)C)C1c1ccco1 (stereo not drawn),active: 31.6 µM,–
Cc1c(NC(=O)CN2CCN(C(c3ccccc3)c3ccccc3)CC2)c(=O)n(-c2ccccc2)n1C,"inconclusive: 3.98 µM [inhibitor, single point]",–
CCOc1ccc(NC(=O)c2ccc(N)cc2)cc1,inactive,–
CN(C)/C=N/c1ncc(C(=O)c2ccc3ccccc3c2)s1,"inconclusive: 0.631 µM [inhibitor, full curve]",–
Cc1ccc2nc(NC(=O)C3CCN(S(=O)(=O)c4cc([N+](=O)[O-])ccc4Cl)CC3)sc2c1,active: 31.6 µM,–
COc1ccc(C2CC(c3ccccc3Cl)Nc3ncnn32)cc1OC (stereo not drawn),inactive,–
CC(C)(C)NC(=S)NCc1ccc2c(c1)OCO2,"inconclusive: 0.1 µM [inhibitor, full curve, poor fit]",–
Clc1ccccc1-c1nnc2sc(C3COc4ccccc4O3)nn12 (stereo not drawn),active: 4.47 µM,–
O=C1c2ccc3c4c(ccc(c24)C(=O)N1CCCCO)C(=O)N(CCCCO)C3=O,active: 7.08 µM,–
O=C(Cc1c(F)cccc1Cl)Nc1nc2ccccc2s1,"inconclusive: 6.31 µM [inhibitor, single point]",–
CC(=O)c1c(O)cccc1O,inactive,–
COC(=O)c1ccc(C(NC(=O)OCc2ccccc2)/C(=C/[C@@H](C)C(=O)NCc2ccc(OC)c(OC)c2)c2cccnc2)cc1 (stereo partly drawn),inactive,–

SMILES,Potency,"activity, negative = inhibition"
CN(C)c1cc(NC(=O)CNC(C)(C)CC(C)(C)C)c2ccccc2n1,"inconclusive: 0.562 µM [inhibitor, full curve]",–
Cc1cccc(C(=O)Nc2ccc(C(=O)/C=C/c3cccnc3)cc2)c1,active: 1.12 µM,–
Cn1cnnc1Sc1ccc(/C=C/C(=O)c2ccc(O)cc2)cc1[N+](=O)[O-],"inconclusive: 39.8 µM [inhibitor, single point]",–
Cc1cccc(NC(=S)NC(=O)CCc2ccccc2)c1,"inconclusive: 35.5 µM [inhibitor, single point]",–
Cc1[nH]nc(N)c1N=Nc1ccc(Br)cc1,"inconclusive: 7.08 µM [inhibitor, single point]",–
N[C@H](C(=O)O)c1cc(O)cc(O)c1,"inconclusive: 39.8 µM [inhibitor, single point]",–
COC(=O)C1=C(C)NC(C)=C(C(=O)OCCSc2ccccc2)C1C (stereo not drawn),"inconclusive: 8.91 µM [inhibitor, full curve, poor fit]",–
CC(=O)c1cccc(NC(=O)Cn2cc3c(n2)CCCC3)c1,inactive,–
O=C(Cc1ccc(S(=O)(=O)N2CCOCC2)s1)Nc1ccc(N2CCOCC2)cc1,inactive,–
O=C(CSc1nc(-c2ccc(F)cc2)nc2c1Cc1ccccc1O2)Nc1ccc(C(=O)O)cc1,"inconclusive: 6.31 µM [inhibitor, single point]",–
CC(C)CC(=O)N[C@H](C(=O)N[C@H](C(=O)N[C@@H](CC(C)C)[C@@H](O)CC(=O)N[C@@H](C)C(=O)N[C@@H](CC(C)C)[C@@H](O)CC(=O)O)C(C)C)C(C)C,active: 31.6 µM,–
Cc1ccc(NC(=O)c2c(C(F)(F)F)nn(C)c2SCc2cccc(C(F)(F)F)c2)cc1C,"inconclusive: 17.8 µM [inhibitor, single point]",–
CC(=O)c1c(C)[nH]c(C(=O)CSc2nc3ccc(C)cc3[nH]2)c1C,"inconclusive: 0.158 µM [inhibitor, partial curve, poor fit]",–
CC12C=C(/C=C/CCc3ccco3)C(C)(C1)C(CCc1ccco1)CC2=O (stereo not drawn),"inconclusive: 5.62 µM [inhibitor, single point]",–
CC(=O)/C(N=Nc1ccc(C(=O)O)cc1[N+](=O)[O-])=C(\C)O,inactive,–
CC(=O)NC1N=C(C)N(c2ccccc2)C1=O (stereo not drawn),inactive,–
CC(=C/c1ccco1)/C=N/NC(=O)Cc1cccn1C,"inconclusive: 31.6 µM [inhibitor, single point]",–
Cc1csc(NC(=O)C2=NN(c3ccccc3)C(=O)CC2)n1,inactive,–
Cc1cc(C)c(S(=O)(=O)/N=C2\C=CC(=O)C(Cl)=C2)c(C)c1,"inconclusive: 31.6 µM [inhibitor, single point]",–
COc1cccc(Nc2ncc3nc(-c4cc(F)cc(F)c4)c(=O)n(CCC#N)c3n2)c1,"inconclusive: 35.5 µM [inhibitor, single point]",–
C/C=C\C=C/C(=O)Nc1cccc(C2=NOC3(C2)C[C@@H](C(N)=O)N(C(=O)C2(C)CC2)C3)c1 (stereo partly drawn),"inconclusive: 6.31 µM [inhibitor, single point]",–
CC1=C(C(=O)Nc2ccccc2)C(c2ccc(C)o2)n2c(s/c(=C\c3ccco3)c2=O)=N1 (stereo not drawn),"inconclusive: 39.8 µM [inhibitor, single point]",–

# Entries listed so far containing a tert-butyl group, in the order listed:
SMILES,Potency,"activity, negative = inhibition"
CC(=O)Nc1ccc(OS(=O)(=O)c2ccc(C(C)(C)C)cc2)cc1,"inconclusive: 35.5 µM [inhibitor, partial curve]",–
CC(C)(C)NC(=S)NCc1ccc2c(c1)OCO2,"inconclusive: 0.1 µM [inhibitor, full curve, poor fit]",–
CN(C)c1cc(NC(=O)CNC(C)(C)CC(C)(C)C)c2ccccc2n1,"inconclusive: 0.562 µM [inhibitor, full curve]",–
